From patent publication US11013709B2, “Highly purified eicosapentaenoic acid, as free fatty acid, reduces fecal calprotectin levels and prevents clinical relapse in ulcerative colitis patients” (S.L.A. PHARMA AG, priority 2017, dated 2021)
At least one compound was matched to its structure with a doubt left.

Legend:
C-reactive protein (CRP) = C-reactive protein (CRP) blood test during the UC study; format: in vivo, human; settings: throughout the period of the study
fecal calprotectin (FC) = test: Double-blind, randomized, placebo-controlled study in UC patients: fecal calprotectin level (ELISA, Calprest); format: in vivo, human; settings: placebo-controlled trial of 60 patients with UC treated for 6 months
Method: The present invention provides for a double-blind, randomized, placebo-controlled study with UC patients with fecal calprotectin level ≥150 μg/g and in stable therapy for at least the 3 previous months. Each subject, receives either 2 grams daily of EPA-FFA (2 dosages of 500 mg sustained-release capsules, twice a day) or placebo (2 dosages of 500 mg sustained-release capsules of capric and caprylic acids, twice daily) for a 6 month period. At baseline, the patients undergo a total colonoscopy. Fecal calprotectin levels, clinical and laboratory assessments are performed at baseline, 3 and 6 months or at the time of clinical relapse, which has been defined as the occurrence of symptoms accompanied by an increase in the partial Mayo score ≥2 and/or requiring a change in therapy. […]
The primary endpoint is the proportion of patients achieving a 100-point reduction (100 μg/g or greater) from baseline in FC level at 6 months. […] A combined endpoint consisting of the number of patients achieving the primary and secondary endpoints is also calculated. […]
A fecal sample from the first bowel movement in the morning is stored in a refrigerator at 2-8° C. for a maximum of 24 h before performing the analysis. Quantification of FC levels is carried out using a quantitative, enzyme-linked immunosorbent assay (Calprest; Eurospital, Trieste, Italy), according to the manufacturers' instructions. […]

In the case of `CC/C=C\C/C=C\C/C=C\C/C=C\C/C=C\CCCC(=O)O` [EPA-FFA, eicosapentaenoic acid], the CRP change (C-reactive protein (CRP)) is reported as “did not change significantly” and the “fecal levels of calprotectin” value (fecal calprotectin (FC)) is reported as “reduced fecal levels of calprotectin”.
